Measured values published in US20150024031A1, “Methods And Compositions For Reducing Pain, Inflammation, And/Or Immunological Reactions Associated With Parenterally Administering A Primary Therapeutic Agent” (BAXTER INTERNATIONAL INC., priority 2013, published 2015).
At least one structure is not confirmed: it was looked up by name or label, or the drawing left a doubt.

System: Lewis rats inoculated with peptidoglycan-polysaccharide (PG-PS)
Test: Incapacitance testing (hind limb weight bearing) in PG-PS inflammation model
Type: in vivo
Conditions: comparison between treatment groups

## Cc1ccc(-c2cc(C(F)(F)F)nn2-c2ccc(S(N)(=O)=O)cc2)cc1 [celecoxib]
  relative effectiveness from hind limb weight bearing and gait analysis: more effective than the saline control
